Assay results as given in patent US20160287536A1, “Composition” (THE UNIVERSITY OF NOTTINGHAM, priority 2013, published 2016).

Columns and labels:
[1] = tested on: α2-adrenoceptor; test: Saturation radioligand binding of [^3H]-RX821002 to sheep anorectal tissue membranes; details: sheep rectal artery, sheep rectal vein and terminal branches
[2] = tested on: α1-adrenoceptor; test: Saturation radioligand binding of [^3H]-prazosin to sheep anorectal tissue membranes

Row | SMILES | density of α2-adrenoceptors bound to [^3H]-RX821002 (Bmax) [1] | density of α1-adrenoceptors ([^3H]-prazosin binding, Bmax) ([2]; sheep rectal artery and vein) | density of α1-adrenoceptors ([^3H]-prazosin binding, Bmax) ([2]; terminal branches of rectal vessels) [fmol/mg protein]
1 | COC1(C2=NCCN2)COc2ccccc2O1 (stereo not drawn) [[^3H]-RX821002, 2-(2-methoxy-1,4-benzodioxan-2-yl)-2-imidazoline] | about 60 fmol/mg protein |  | 
2 | COc1cc2nc(N3CCN(C(=O)c4ccco4)CC3)nc(N)c2cc1OC [[^3H]-prazosin] |  | about 100 fmol/mg protein | 36.5
